Assay results as given in PubChem BioAssay AID1347075 (National Center for Advancing Translational Sciences (NCATS), 2019).
About 5,500 (1.4%) of roughly 400,000 compounds were called active. The shares of active, inactive and inconclusive entries below differ from those in the screen. Calls follow the shape of the dose curve; as a rule, active = well fitted cell-killing curve with a large enough effect; inconclusive = small, poorly fitted or top-dose-only effect, or effect the other way; inactive = flat fitted curve, though single readings scatter. Where the call is inconclusive, the potency comes from a doubtful curve fit.

Test: qHTS assay for MDR1-selective chemotherapeutics: Primary screen using the parental adenocarcinoma cell KB-3-1; also: nearly all actives have a fitted effect of over 60% in size
Conditions: KB-3-1 viability, CellTiter-Glo ATP luminescence, 72 h; series mostly up to 46.1 µM
In short: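 Cytotoxicity in the drug-sensitive parental line KB-3-1 was scored as loss of CellTiter-Glo luminescence following 72 h incubation with compound. Values come from curve fitting of normalized concentration-response data.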
Potency is read from the fitted curve at half-maximal effect.

| Compound | Potency |
| --- | --- |
| CCc1cccc(CC)c1NC(=S)NCc1ccc2[nH]c(C)cc2c1 | inconclusive: 29.1 µM [cytotoxic, single point] |
| O=S(=O)(c1ccc(Br)cc1)N1CCCC1c1nc2ccccc2s1 (stereo not given) | inactive |
| CC[C@]1(C(=O)OC)[C@H]2C(=O)N(Cc3ccccc3)C(=O)[C@H]2[C@H]2CN=C(SCc3ccc(C(=O)OC)cc3)N21 | inconclusive: 4.11 µM [rising, full curve, poor fit] |
| COC(=O)c1ccc(N2C(c3ccsc3)=Cc3cc4c(cc3C2CC(=O)c2ccco2)OCO4)cc1 (stereo not given) | inconclusive: 18.4 µM [cytotoxic, single point] |
| COc1ccc(C)cc1NC(=O)CSc1nnc(-c2cc(C)[nH]n2)n1N | inconclusive: 5.17 µM [rising, partial curve, poor fit] |
| COc1ccc2c(CNCc3ccco3)c(C(=O)O)n(Cc3ccc(F)cc3Cl)c2c1 | inactive |
| O=C(C1CC1)N1N=C2CCCCC2C1(O)C(F)(F)F (stereo not given) | inconclusive: 29.1 µM [cytotoxic, single point] |
| O=C(Cn1c(SCCOc2ccccc2Cl)nc2ccccc21)N1CCOCC1 | inactive |
| Cc1ccc(S(=O)(=O)NC(=O)NC2=NC(C)(C)N(c3ccc(Cl)c(Cl)c3)C(N)=N2)cc1 | inconclusive: 29.1 µM [cytotoxic, single point] |
| CCOc1ccc(-n2c(SCC(=O)c3c(N)n(C)c(=O)n(C)c3=O)nnc2-c2cccnc2)cc1 | inconclusive: 7.31 µM [rising, partial curve, poor fit] |
| O=C(Nc1cc(SCCO)cc([N+](=O)[O-])c1)c1ccc(Br)o1 | inconclusive: 14.6 µM [rising, partial curve] |
| c1cc(-c2ccc3[nH]ccc3c2)n2ccnc2c1 | inconclusive: 29.1 µM [cytotoxic, partial curve, poor fit] |
| CCN(CC)S(=O)(=O)c1ccc(NS(=O)(=O)c2ccc3oc(=O)[nH]c3c2)cc1 | inconclusive: 23.1 µM [rising, single point] |
| CCOc1ccc(CCNC(=O)CCCN2C(=O)c3ccccc3C2=O)cc1OCC | inconclusive: 6.51 µM [rising, partial curve, poor fit] |
| CCCOc1ccc(C(=O)NNC(=S)NC(C)=O)cc1 | active: 16.4 µM |
| OC(c1ccccc1)(c1nc(-c2ccccc2)cs1)C(F)(F)F (stereo not given) | inactive |
| O=C1CN(C(=O)CSc2nc(-c3ccc(Cl)cc3)cs2)c2ccccc2N1 | inconclusive: 32.6 µM [cytotoxic, single point] |
| CCc1nc2ccc(C(=O)NCc3cccs3)cn2c1N(CC)Cc1cccc(Br)c1 | inconclusive: 29.1 µM [cytotoxic, single point] |
| CCn1ncc([N+](=O)[O-])c1C(=O)Nc1cc(C)on1 | inconclusive: 16.4 µM [rising, single point] |
| CCCCCCCCCCCCCCCC[n+]1cccc2ccccc21 | inconclusive: 1.3 µM [cytotoxic, full curve, poor fit] |
| COCC(=O)Nc1ccc2c(c1)[C@@H]1C[C@H](CC(=O)NCc3ccccc3)O[C@@H](CO)[C@@H]1O2 | inconclusive: 7.31 µM [rising, partial curve, poor fit] |
| COc1ccc(S(=O)(=O)N2CCN(C(=O)c3ccco3)CC2)c(C)c1C | inconclusive: 20.6 µM [cytotoxic, single point] |
| C/C(=N\NC(=S)NCCc1ccccc1)c1ccc(C)cc1 | inactive |

| Compound | Potency |
| --- | --- |
| Cc1[nH]c2ccccc2c1C(=O)CSC(=S)N1CCOCC1 | inconclusive: 23.1 µM [cytotoxic, single point] |
| Cc1nn(-c2ccccc2)c(N)c1Sc1ccc([N+](=O)[O-])cc1 | inconclusive: 23.1 µM [cytotoxic, single point] |
| Cc1c(C(=O)NCCc2ccc(Cl)cc2)cccc1-n1cnc2cccnc21 | inactive |
| Clc1nc(NCc2ccco2)nc(N2CCCCC2)n1 | inactive |
| Cn1c(SCCN2CCCCC2)nnc1-c1ccccc1Br | inactive |
| CCOC(=O)c1cc2sccc2n1CC(=O)N1CCCC1 | inactive |
| COc1ccc(NC(=O)c2c(N)c(C(=O)c3ccc(OC)cc3)n3ccccc23)cc1 | inactive |
| Cc1ccc(-c2nc3ccccc3c(=O)n2N)cc1 | inactive |
| Cc1ccc(C)c(OCCC(=O)N2CCN(S(=O)(=O)c3cc(F)ccc3F)CC2)c1 | inconclusive: 23.1 µM [cytotoxic, single point] |
| CCOc1ccc(N(C)S(=O)(=O)c2ccc(-c3cc(C)no3)s2)cc1 | active: 5.8 µM |
| COc1ccc(NS(=O)(=O)c2ccc3oc(SCc4ccc(F)cc4)nc3c2)cc1 | inconclusive: 20.6 µM [cytotoxic, partial curve, poor fit] |
| COc1ccc(Cn2c(=O)[nH]c3cc(C(=O)N4CCN(Cc5ccccc5)CC4)ccc3c2=O)cc1 | inconclusive: 18.4 µM [cytotoxic, single point] |
| CCCC1=C(C(=O)OCC)C(c2ccc(N(C)C)cc2)n2ncnc2N1 (stereo not given) | inconclusive: 18.4 µM [cytotoxic, single point] |
| O=C(Cc1ccccc1)Nc1ccc(NC(=O)c2cccs2)cc1Cl | inactive |
| CCOC(=O)N1CCN(CC(=O)Nc2c(C(=O)OC)[nH]c3cc(C)ccc23)CC1 | inactive |
| Cc1ccc(S(=O)(=O)/N=C(/Nc2ccc(O)c(C(=O)O)c2)c2ccccc2)cc1 | inactive |
| Cc1cccc(Nc2nc(NCc3ccco3)nc(N3CCOCC3)n2)c1 | inconclusive: 29.1 µM [cytotoxic, single point] |
| CNc1cncc(-c2ccc(CN3CCOCC3)cc2)n1 | inconclusive: 23.1 µM [cytotoxic, single point] |
| CCc1ccc(OCC(=O)N2CC(C(N)=O)Oc3ccccc32)cc1 (stereo not given) | inactive |
| CN(C)c1ccc(-c2nc3ccccc3n2C)cc1 | inconclusive: 16.4 µM [cytotoxic, single point] |
| Cc1ccc(N=Nc2c(C)[nH]n(C(N)=S)c2=O)cc1 | inactive |
| COc1cccc(NC(c2nnc(-c3ccccc3)o2)c2ccc(F)cc2Cl)c1 (stereo not given) | inactive |

Structural class: those above with a CF3 group (2)

| Compound | Potency |
| --- | --- |
| O=C(C1CC1)N1N=C2CCCCC2C1(O)C(F)(F)F (stereo not given) | inconclusive: 29.1 µM [cytotoxic, single point] |
| OC(c1ccccc1)(c1nc(-c2ccccc2)cs1)C(F)(F)F (stereo not given) | inactive |
